Results as given in publication PMC4560765.

Protein sequences, listed by entry. Tags and fused reporters are not part of them. Residues count along the entry.
UniProt P01135, residues 24-160: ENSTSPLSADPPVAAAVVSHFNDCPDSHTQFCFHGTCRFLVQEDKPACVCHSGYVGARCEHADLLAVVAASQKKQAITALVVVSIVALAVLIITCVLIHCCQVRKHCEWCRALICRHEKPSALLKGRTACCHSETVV

Target: T1, RHBDD1 with FLAG and SBP epitopes knocked in at the COOH terminus (endogenous locus, HCT116) (human (endogenous in HCT116)) (UniProt Q8TEB9)
T1 sequence: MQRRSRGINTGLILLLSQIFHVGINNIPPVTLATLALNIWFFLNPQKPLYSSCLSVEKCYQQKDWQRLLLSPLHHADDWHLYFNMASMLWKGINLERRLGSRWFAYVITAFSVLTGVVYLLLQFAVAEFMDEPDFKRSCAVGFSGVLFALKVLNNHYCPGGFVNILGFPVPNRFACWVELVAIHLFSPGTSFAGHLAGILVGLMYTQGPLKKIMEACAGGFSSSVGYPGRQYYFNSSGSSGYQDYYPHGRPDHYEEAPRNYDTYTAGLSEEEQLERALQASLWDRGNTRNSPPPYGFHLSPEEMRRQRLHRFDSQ
Experiment: affinity purification with mass spectrometry; targeted knock-in HCT116 cells lysed in 50 mM Tris-HCl pH 7.4, 100 mM NaCl, 0.5% NP-40, 1 mM EDTA; anti-FLAG M2 affinity gel; SDS-PAGE, silver stain, differential bands analysed by LC-MS/MS

Substance: endogenous proTGFα (from UniProt P01135 24-160) (ligand)
- binding: binds

No constants are given. Whether binding was seen depends on the method and setting. In cells and extracts the contact can be indirect. Here binding means that the protein was enriched with, or labelled near, the bait; the list need not be complete. Where a sequence is shown, tags or fusion partners need not be part of it.
